# PubChem BioAssay AID1259254, NCATS | 2017
# Purpose: 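Gene knock-downs that lead to re-replication, shown by excess G2 DNA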 (primary screen)
# Cell system: human HCT116 colorectal cancer cells
# Knock-down reagent: single siRNA against human genes
# Duration: 3 days
# Read-out: 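Imaged Hoechst DNA stain sorts each cell into a cycle phase by DNA amount; per plate, G2 fraction set to 0% for non-targeting and 100% for GMNN siRNA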
# Reading the numbers: G2 robust z-score and G2 cells, % of GMNN control: higher = more G2 cells, more excess DNA replication
# Rule for the call: 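Active siRNAs have a G2 robust z of 5 or more median absolute deviations over the median, which in these data means about 38% or higher of GMNN control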
# In all, the deposit lists about 59,000 reagents; below is a part drawn at random. About 1,550 of them (2.6%) were called active. 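G2 share is only a proxy for re-replication; each gene was hit by three separate siRNAs, and active genes were retested.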 Unmarked entries are inactive. Reagents against one gene are numbered here. Not all columns of the deposit are shown. Not stated in the record: the amount of reagent.
Gene,siRNA no.,G2 robust z-score,"G2 cells, % of GMNN control"
RBM20 (GeneID 282996),1,-0.0507,2.61
RBM20 (GeneID 282996),2,0.382,5.65
RBM20 (GeneID 282996),3,-0.667,-1.73
XRRA1 (GeneID 143570),1,-0.803,-2.68
XRRA1 (GeneID 143570),2,4.41,34
XRRA1 (GeneID 143570),3,-0.571,-1.05
C8orf33 (GeneID 65265),1,2.6,21.2
C8orf33 (GeneID 65265),2,-0.318,0.728
C8orf33 (GeneID 65265),3,-0.889,-3.29
BCKDHB (GeneID 594),1,0.545,6.8
BCKDHB (GeneID 594),2,-1.32,-6.34
BCKDHB (GeneID 594),3,2.24,18.7
C1GALT1C1 (GeneID 29071),1,-0.544,-0.86
C1GALT1C1 (GeneID 29071),2,-0.998,-4.05
C1GALT1C1 (GeneID 29071),3,-0.103,2.24
RINT1 (GeneID 60561),1,0.329,5.28
RINT1 (GeneID 60561),2,-0.0156,2.86
RINT1 (GeneID 60561),3,0.59,7.12
ZNF808 (GeneID 388558),1,2.74,22.2
ZNF808 (GeneID 388558),2,1.96,16.7
ZNF808 (GeneID 388558),3,1.78,15.5
F11 (GeneID 2160),1,3.02,24.2
F11 (GeneID 2160),2,0.452,6.15
F11 (GeneID 2160),3,-0.131,2.04
PREX2 (GeneID 80243),1,1.35,12.5
PREX2 (GeneID 80243),2,0.462,6.22
PREX2 (GeneID 80243),3,0.141,3.96
GPR55 (GeneID 9290),1,1.16,11.1
GPR55 (GeneID 9290),2,0.364,5.53
GPR55 (GeneID 9290),3,0.898,9.28

Targets listed so far whose target name starts with F or f:
Gene,siRNA no.,G2 robust z-score,"G2 cells, % of GMNN control"
F11 (GeneID 2160),1,3.02,24.2
F11 (GeneID 2160),2,0.452,6.15
F11 (GeneID 2160),3,-0.131,2.04
